{
  "source": "patent US4942171A",
  "about": "“The compound, 6-(1-imidazolyl methyl)-5,6,7,8-tetrahydronaphthalene-2-carboxylic acid and salts thereof having antidiabetic activity” (Daiichi Seiyaku Co., Ltd., priority 1987, dated 1990)",
  "origin": "cited, not measured here",
  "tested_on": "diabetic test animals",
  "details": "orally administered; cited from earlier work",
  "note": "Where a name gives a salt, the structure may show the parent alone. For at least one compound, name, drawing or mass did not settle the structure.",
  "data": [
    {"smiles": "O=C(O)/C=C/c1ccc(Cn2ccnc2)cc1", "note": "[(E)-3-(4-(1-Imidazolylmethyl)phenyl)propenoic acid hydrochloride]", "values": [
      {"measurement": "effect in diabetic test animals", "value": "not satisfactory for the treatment"}
    ]}
  ]
}
